This is one part of the list. Residues, ends and D or L forms follow the SMILES beside them. *: point of attachment. Cbz = O=C(OCc1ccccc1)*
Columns and labels:
Assay in all cases: log2 fold change, soluble protein after heating vs DMSO (PISA); higher = thermal stabilisation; K562 cells, 10 uM, 30 min; active = over 0.2 and 3.5 SD of the protein, either way, in both replicates (recomputed)
[1] = compound: CC1=CC=C(C=C1)SC2=C3C=C(SC3=CN=C2)C(=O)N
Outline: (§1)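 K562 cells at 2×10^6 cells/mL were exposed to 10 μM compound for 30 min, then aliquots were heated for 3 min across 48°C-58°C, pooled, and extracted in PBS containing 0.5% NP-40 at 4°C. The supernatant after 21,000xg for 90 min was taken as soluble protein and measured by TMTpro 16plex LC-MS/MS with channel sums equalised. Thermal stability is reported relative to control samples, with values from duplicates. Fold changes are given on a log2 scale.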

Sequences of proteins named here, by UniProt entry; tags and fusion partners are left off. A change or cut given only in a name is not applied to a line headed by its entry.
UniProt Q9H1P3, whole entry, looked up: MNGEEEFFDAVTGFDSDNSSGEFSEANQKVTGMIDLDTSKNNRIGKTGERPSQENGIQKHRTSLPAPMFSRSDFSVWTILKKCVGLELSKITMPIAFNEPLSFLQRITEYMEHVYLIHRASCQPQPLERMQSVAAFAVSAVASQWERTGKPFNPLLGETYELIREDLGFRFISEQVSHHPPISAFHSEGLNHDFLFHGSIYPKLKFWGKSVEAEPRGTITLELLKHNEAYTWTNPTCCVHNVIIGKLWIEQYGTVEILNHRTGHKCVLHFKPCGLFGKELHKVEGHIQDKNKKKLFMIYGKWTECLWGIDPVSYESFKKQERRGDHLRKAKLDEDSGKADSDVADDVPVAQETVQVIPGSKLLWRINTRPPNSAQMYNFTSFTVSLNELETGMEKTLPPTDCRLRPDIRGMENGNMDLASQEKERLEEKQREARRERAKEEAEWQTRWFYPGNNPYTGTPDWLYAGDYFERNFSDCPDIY
UniProt Q9BXB4: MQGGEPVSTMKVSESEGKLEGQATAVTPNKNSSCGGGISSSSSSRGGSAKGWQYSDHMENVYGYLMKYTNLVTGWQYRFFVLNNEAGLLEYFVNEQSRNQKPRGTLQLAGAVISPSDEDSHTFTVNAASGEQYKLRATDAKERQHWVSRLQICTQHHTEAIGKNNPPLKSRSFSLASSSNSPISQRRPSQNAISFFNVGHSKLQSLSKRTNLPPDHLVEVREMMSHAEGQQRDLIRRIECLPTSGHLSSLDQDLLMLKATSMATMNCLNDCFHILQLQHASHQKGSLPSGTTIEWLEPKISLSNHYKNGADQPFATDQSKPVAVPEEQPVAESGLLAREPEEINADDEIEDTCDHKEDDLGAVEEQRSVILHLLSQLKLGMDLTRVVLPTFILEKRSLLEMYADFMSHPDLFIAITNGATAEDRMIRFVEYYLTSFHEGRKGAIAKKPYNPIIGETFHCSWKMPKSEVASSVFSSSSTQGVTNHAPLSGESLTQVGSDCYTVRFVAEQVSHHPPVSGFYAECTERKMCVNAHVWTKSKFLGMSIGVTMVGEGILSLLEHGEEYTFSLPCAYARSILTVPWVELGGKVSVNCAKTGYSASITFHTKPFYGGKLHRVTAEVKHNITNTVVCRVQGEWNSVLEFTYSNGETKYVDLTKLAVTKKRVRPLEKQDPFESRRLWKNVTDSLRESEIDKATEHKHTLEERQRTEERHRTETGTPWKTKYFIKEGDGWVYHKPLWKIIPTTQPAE
UniProt Q9UBU9: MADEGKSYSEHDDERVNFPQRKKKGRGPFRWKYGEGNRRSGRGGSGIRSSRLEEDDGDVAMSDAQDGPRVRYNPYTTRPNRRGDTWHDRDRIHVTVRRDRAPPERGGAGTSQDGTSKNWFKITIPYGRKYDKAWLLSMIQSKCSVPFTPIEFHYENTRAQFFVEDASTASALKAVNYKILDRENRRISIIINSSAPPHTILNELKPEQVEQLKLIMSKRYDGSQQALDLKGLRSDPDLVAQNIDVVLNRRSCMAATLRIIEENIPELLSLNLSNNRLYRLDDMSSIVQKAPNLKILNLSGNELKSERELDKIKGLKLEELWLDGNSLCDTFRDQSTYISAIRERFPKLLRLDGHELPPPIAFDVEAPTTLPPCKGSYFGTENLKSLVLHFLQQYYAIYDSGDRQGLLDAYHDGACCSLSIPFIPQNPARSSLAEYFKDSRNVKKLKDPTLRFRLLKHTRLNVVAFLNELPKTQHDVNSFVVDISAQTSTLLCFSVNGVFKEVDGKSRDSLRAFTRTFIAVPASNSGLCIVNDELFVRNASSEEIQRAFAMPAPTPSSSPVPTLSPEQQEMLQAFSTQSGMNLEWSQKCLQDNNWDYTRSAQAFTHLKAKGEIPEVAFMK
UniProt Q8N138: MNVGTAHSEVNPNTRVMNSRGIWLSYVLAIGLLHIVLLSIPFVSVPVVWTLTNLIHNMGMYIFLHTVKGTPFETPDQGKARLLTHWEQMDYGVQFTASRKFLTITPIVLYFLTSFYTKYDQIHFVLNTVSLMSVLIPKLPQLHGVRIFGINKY
UniProt Q9BZF3: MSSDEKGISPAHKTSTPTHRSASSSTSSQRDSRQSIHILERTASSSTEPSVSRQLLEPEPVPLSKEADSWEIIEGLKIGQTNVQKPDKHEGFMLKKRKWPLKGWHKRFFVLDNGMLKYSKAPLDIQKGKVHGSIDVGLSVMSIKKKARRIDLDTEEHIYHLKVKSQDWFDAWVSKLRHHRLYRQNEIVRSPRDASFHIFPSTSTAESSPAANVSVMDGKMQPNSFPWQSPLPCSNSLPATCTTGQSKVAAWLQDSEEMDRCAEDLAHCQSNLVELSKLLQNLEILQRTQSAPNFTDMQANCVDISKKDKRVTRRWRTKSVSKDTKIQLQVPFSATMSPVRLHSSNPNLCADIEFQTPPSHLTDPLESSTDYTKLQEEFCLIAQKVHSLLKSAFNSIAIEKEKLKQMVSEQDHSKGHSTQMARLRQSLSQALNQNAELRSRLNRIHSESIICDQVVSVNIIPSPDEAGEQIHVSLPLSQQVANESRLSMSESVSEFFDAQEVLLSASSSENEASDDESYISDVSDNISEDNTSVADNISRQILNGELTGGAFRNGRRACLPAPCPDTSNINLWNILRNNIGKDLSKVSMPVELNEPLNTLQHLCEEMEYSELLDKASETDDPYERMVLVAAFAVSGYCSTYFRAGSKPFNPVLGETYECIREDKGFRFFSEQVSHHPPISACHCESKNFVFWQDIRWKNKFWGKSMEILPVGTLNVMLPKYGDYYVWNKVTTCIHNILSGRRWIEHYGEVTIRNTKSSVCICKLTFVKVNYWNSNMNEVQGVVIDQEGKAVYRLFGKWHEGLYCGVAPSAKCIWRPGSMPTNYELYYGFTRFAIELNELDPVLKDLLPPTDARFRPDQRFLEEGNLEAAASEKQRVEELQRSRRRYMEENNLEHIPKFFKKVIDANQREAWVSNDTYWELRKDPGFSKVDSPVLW
UniProt Q9P0S3: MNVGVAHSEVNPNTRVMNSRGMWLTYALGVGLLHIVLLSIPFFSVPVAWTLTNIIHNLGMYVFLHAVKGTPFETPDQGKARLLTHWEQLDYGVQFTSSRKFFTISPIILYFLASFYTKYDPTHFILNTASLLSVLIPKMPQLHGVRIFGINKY
UniProt Q9BRQ3: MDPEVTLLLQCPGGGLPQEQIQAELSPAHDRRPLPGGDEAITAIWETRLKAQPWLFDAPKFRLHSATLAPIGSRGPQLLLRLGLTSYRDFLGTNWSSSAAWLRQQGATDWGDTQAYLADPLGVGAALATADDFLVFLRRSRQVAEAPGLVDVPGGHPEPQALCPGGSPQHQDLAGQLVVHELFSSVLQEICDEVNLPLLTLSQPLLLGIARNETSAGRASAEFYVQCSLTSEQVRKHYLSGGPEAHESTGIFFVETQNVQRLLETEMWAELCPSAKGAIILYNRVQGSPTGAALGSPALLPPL
UniProt Q6PK18: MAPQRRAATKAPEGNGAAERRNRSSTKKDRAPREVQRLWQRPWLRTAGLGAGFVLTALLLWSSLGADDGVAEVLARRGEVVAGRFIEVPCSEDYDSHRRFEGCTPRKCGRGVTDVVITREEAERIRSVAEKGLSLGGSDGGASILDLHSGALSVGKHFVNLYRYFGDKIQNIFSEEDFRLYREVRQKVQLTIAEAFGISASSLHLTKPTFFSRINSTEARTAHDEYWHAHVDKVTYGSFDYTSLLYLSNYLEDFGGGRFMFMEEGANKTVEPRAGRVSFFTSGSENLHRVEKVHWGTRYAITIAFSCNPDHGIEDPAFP
UniProt Q99935: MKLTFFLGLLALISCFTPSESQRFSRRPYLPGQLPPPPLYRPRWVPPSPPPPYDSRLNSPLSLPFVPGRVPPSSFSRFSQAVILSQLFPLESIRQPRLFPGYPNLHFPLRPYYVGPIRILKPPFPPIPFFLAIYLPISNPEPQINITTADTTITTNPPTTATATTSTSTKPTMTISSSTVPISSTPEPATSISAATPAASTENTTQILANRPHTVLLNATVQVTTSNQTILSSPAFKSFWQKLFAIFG
UniProt Q8WV22: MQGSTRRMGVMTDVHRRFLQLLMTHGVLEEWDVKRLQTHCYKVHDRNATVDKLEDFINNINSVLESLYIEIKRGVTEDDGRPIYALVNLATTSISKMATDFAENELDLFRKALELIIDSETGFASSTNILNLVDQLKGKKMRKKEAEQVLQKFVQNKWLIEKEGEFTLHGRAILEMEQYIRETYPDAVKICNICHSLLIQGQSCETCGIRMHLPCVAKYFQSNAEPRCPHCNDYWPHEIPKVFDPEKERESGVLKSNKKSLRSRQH
UniProt Q5BKU9: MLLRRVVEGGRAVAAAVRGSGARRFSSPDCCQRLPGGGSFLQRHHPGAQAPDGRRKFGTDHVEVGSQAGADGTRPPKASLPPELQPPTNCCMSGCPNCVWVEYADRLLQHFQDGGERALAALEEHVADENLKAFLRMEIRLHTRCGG
UniProt Q9ULJ1: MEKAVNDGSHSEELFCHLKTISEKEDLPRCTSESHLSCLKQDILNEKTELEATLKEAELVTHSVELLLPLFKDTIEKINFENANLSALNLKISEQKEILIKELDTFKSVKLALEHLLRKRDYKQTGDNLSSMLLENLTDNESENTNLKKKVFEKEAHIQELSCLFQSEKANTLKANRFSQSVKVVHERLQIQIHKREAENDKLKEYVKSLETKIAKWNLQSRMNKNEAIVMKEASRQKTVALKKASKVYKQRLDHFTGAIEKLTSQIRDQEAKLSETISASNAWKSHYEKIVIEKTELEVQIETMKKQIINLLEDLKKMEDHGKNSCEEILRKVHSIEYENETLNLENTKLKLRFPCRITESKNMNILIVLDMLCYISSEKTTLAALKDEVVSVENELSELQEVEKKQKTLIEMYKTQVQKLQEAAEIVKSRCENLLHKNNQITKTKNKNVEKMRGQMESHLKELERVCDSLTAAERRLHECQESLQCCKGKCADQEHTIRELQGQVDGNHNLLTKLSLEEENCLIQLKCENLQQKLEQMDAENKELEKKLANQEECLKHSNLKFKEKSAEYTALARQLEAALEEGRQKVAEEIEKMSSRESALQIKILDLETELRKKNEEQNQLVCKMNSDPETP
UniProt Q9H6K4: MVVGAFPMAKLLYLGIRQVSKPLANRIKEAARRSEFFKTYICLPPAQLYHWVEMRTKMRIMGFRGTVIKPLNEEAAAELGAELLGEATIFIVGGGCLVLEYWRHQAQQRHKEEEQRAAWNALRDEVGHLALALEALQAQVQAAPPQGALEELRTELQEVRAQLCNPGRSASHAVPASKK
UniProt Q9UBD5: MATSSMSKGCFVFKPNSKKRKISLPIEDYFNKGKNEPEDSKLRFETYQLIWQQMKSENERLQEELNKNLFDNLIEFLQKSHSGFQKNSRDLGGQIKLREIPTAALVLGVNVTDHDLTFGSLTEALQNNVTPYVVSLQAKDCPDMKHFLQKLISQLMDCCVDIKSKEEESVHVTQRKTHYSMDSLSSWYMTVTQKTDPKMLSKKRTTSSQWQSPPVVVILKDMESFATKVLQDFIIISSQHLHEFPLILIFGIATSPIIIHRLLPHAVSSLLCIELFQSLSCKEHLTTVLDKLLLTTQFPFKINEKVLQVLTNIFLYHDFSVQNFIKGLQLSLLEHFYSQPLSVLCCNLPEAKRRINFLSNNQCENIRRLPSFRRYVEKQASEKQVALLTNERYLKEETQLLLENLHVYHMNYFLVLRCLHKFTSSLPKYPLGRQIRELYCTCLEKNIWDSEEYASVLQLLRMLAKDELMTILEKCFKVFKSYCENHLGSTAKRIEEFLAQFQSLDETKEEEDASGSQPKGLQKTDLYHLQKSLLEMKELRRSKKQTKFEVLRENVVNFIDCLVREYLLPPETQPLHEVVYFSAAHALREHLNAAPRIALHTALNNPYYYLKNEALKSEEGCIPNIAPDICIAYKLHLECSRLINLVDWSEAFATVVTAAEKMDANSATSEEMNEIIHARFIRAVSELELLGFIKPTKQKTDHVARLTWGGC
UniProt Q8WV74: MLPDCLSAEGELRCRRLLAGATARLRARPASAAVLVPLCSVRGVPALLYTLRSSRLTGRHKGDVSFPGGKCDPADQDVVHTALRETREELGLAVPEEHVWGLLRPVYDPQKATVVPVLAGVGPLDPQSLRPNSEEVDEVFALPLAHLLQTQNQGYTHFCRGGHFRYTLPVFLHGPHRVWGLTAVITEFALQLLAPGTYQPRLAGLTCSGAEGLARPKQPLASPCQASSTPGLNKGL
UniProt P53370: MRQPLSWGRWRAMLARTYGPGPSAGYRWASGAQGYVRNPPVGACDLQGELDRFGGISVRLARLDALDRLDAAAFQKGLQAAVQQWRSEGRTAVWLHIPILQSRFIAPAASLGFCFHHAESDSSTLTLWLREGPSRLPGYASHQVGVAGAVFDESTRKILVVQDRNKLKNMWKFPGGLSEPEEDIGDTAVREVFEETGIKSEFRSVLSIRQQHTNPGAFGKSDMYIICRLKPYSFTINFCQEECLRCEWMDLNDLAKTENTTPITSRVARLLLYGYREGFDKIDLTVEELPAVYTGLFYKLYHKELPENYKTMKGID

[2] = compound: CCCS(=O)(=O)Nc1ccc(F)c(C(=O)c2c[nH]c3ncc(Cl)cc23)c1F
Outline: as §1

[3] = compound: CCCc1cc(C)[nH]c(=O)c1CNC(=O)c1cc(-c2ccnc(N3CCN(C)CC3)c2)cc2c1cnn2C(C)C
Outline: as §1

ibrutinib = compound: C=CC(=O)N1CCC[C@@H](n2nc(-c3ccc(Oc4ccccc4)cc3)c3c(N)ncnc32)C1 [ibrutinib]
Outline: as §1

ralimetinib = compound: CC(C)(C)Cn1c(N)nc2ccc(-c3[nH]c(C(C)(C)C)nc3-c3ccc(F)cc3)nc21 [ralimetinib]
Outline: as §1

[4] = compound: CC(C)C[C@@H](C=O)NC(=O)[C@H](CC(C)C)NC(=O)[C@H](CC(C)C)NC(=O)OCc1ccccc1
Outline: as §1

[5] = compound: CC1=C(C=C(C=C1)NC(=O)C2=CC(=CC=C2)N(C)C)NC(=O)C3=CC=C(C=C3)O
Outline: as §1

barasertib = compound: CCN(CCCOc1ccc2c(Nc3cc(CC(=O)Nc4cccc(F)c4)[nH]n3)ncnc2c1)CCOP(=O)(O)O [barasertib]
Outline: as §1

[6] = compound: CC(C)C1=C2N=C(C=C(N2N=C1)NCC3=CC=CC=C3)NCCCCCCN
Outline: as §1

givinostat = compound: CCN(CC)Cc1ccc2cc(COC(=O)Nc3ccc(C(=O)NO)cc3)ccc2c1 [givinostat]
Outline: as §1

IRAK-1-4 Inhibitor I = compound: C1COCCN1CCN2C3=CC=CC=C3N=C2NC(=O)C4=CC(=CC=C4)[N+](=O)[O-] [IRAK-1-4 Inhibitor I]
Outline: as §1

[7] = compound: CC(=O)c1cnc2ccc(-c3cc(Cl)c(O)c(Cl)c3)nc2c1N[C@H]1CC[C@H](CN(C)C)CC1
Outline: as §1

pinometostat = compound: CC(C)N(C[C@H]1O[C@@H](n2cnc3c(N)ncnc32)[C@H](O)[C@@H]1O)[C@H]1C[C@@H](CCc2nc3cc(C(C)(C)C)ccc3[nH]2)C1 [pinometostat]
Outline: as §1

[8] = compound: CC1=C(C(CC(=O)N1)C2=CC=C(C=C2)C(F)(F)F)C(=O)NC3=C(C=C4C(=C3)C=NN4)F
Outline: as §1

[9] = compound: CC1=C(C2=C(C=C1)C(=O)C3=CC=CC=C3N2CCCN)C
Outline: as §1

[10] = compound: CC1=NC(=CC=C1)C2=C(N=C(N2)C(C)(C)C)C3=CC4=NC=CN=C4C=C3
Outline: as §1

[11] = compound: CC(C)(O)CC(=O)NCCn1ccc2ncnc(Nc3ccc(Oc4cccc(C(F)(F)F)c4)c(Cl)c3)c21
Outline: as §1

Nexturastat A = compound: CCCCN(Cc1ccc(C(=O)NO)cc1)C(=O)Nc1ccccc1 [Nexturastat A]
Outline: as §1

[12] = compound: CC1=C(C=C(C=C1)NC(=O)C2=CC(=CC=C2)C(C)(C)C#N)NC3=CC4=C(C=C3)N=CN(C4=O)C
Outline: as §1

vemurafenib = compound: CCCS(=O)(=O)Nc1ccc(F)c(C(=O)c2c[nH]c3ncc(-c4ccc(Cl)cc4)cc23)c1F [vemurafenib]
Outline: as §1

Measured: log2 fold change

OSBPL2 (UniProt Q9H1P3)
inactive: [1] -0.203 | [2] 0 | [3] -0.264

NVL (UniProt O15381)
inactive: ibrutinib 0.05 | ralimetinib 0.058 | [4] 0.008 | [5] 0.001 | [3] 0.028 | barasertib 0.024

OSBPL11 (UniProt Q9BXB4)
inactive: [6] 0.13 | givinostat 0.013

NXF1 (UniProt Q9UBU9)
inactive: IRAK-1-4 Inhibitor I -0.344 | [7] -0.069 | ralimetinib 0.207 | [4] 0.142 | pinometostat 0.184 | [8] 0.325 | [9] -0.052 | [5] 0.033 | [1] -0.082 | [10] -0.259 | [2] -0.265

ORMDL3 (UniProt Q8N138)
inactive: [6] -0.105 | [1] -0.133 | [2] 0.044 | givinostat 0

P2RY1 (UniProt P47900)
inactive: [7] 0.113 | [11] 0.121 | [6] 0.233 | [1] -0.122 | Nexturastat A 0.229 | [2] -0.06 | [3] 0.173 | givinostat -0.153

OSBPL6 isoform 5 (UniProt Q9BZF3)
inactive: IRAK-1-4 Inhibitor I -0.578 | [7] -0.466 | ralimetinib 0.313 | [11] 0 | [6] 0.545 | [4] -0.013 | pinometostat 0.43 | [8] -0.231 | [12] 0.025 | [5] -0.01 | [1] -0.481 | [10] -0.334 | Nexturastat A 0.314 | [2] -0.166 | [3] 0.362 | givinostat -0.114

ORMDL1 (UniProt Q9P0S3)
inactive: IRAK-1-4 Inhibitor I -0.19 | [11] -0.122 | [6] -0.137 | pinometostat 0.099 | [9] 0.106 | [12] 0.036 | [10] -0.127 | Nexturastat A -0.112 | [3] 0.06 | givinostat 0.062

NUDT22 (UniProt Q9BRQ3)
inactive: ibrutinib -0.2 | [7] -0.08 | vemurafenib 0.008 | [3] -0.128 | barasertib 0.322

Random excerpt: two records from the list.
NVL (UniProt O15381)
inactive: ibrutinib 0.05 | ralimetinib 0.058 | [4] 0.008 | [5] 0.001 | [3] 0.028 | barasertib 0.024

OSBPL11 (UniProt Q9BXB4)
inactive: [6] 0.13 | givinostat 0.013

The list goes on.

OGFOD3 (UniProt Q6PK18)
inactive: ibrutinib 0.035 | ralimetinib -0.227 | [4] 0.131 | [8] 0.014 | [5] -0.109 | [1] -0.033 | [2] 0.046 | [3] 0.091 | barasertib 0.079

ODF2 (UniProt Q5BJF6)
inactive: [11] 0.005 | Nexturastat A 0.408

P4HB (UniProt H7BZ94)
inactive: [12] -0.074

OXR1 isoform 2 (UniProt Q8N573)
inactive: IRAK-1-4 Inhibitor I -0.044 | [7] -0.123 | ralimetinib -0.088 | [11] -0.118 | [4] 0.119 | pinometostat 0.066 | [9] 0.031 | [5] -0.007 | [1] 0.008 | [10] -0.071 | Nexturastat A 0 | vemurafenib 0.126 | [2] 0.027

NUDT18 (UniProt Q6ZVK8)
inactive: IRAK-1-4 Inhibitor I 0.101 | [7] -0.134 | ralimetinib 0.031 | [11] -0.192 | [6] 0.111 | [4] 0.013 | pinometostat 0.134 | [8] 0.107 | [9] 0 | [12] 0.012 | [5] 0.011 | [1] -0.134 | [10] -0.028 | Nexturastat A -0.005 | vemurafenib -0.007 | [2] -0.052 | [3] -0.135 | givinostat -0.005

ORC6 (UniProt Q9Y5N6)
inactive: IRAK-1-4 Inhibitor I -0.039 | ralimetinib -0.023 | [11] -0.079 | [4] 0.063 | pinometostat -0.047 | [8] 0.039 | [12] -0.013 | [5] -0.068 | [1] -0.138 | [10] -0.043 | Nexturastat A -0.124 | [2] 0.099

OPRPN (UniProt Q99935)
inactive: [3] 0.301

NSMCE1 (UniProt Q8WV22)
inactive: IRAK-1-4 Inhibitor I 0.037 | [7] -0.067 | ralimetinib -0.081 | [11] 0.054 | [6] 0.066 | [4] 0.022 | pinometostat 0.003 | [8] -0.212 | [9] -0.239 | [12] -0.018 | [5] -0.108 | [1] -0.01 | [10] -0.029 | Nexturastat A 0.008 | vemurafenib 0.119 | [2] 0.012 | [3] 0.004 | givinostat -0.035

OXLD1 (UniProt Q5BKU9)
inactive: [8] 0.034 | [3] 0.051

PABPC1 (UniProt E5RJM8)
inactive: IRAK-1-4 Inhibitor I 0.074 | pinometostat -0.175 | [12] -0.089 | [1] -0.073 | [10] -0.35 | [2] -0.045

ODF2L isoform 4 (UniProt Q9ULJ1)
inactive: IRAK-1-4 Inhibitor I -0.126 | ibrutinib -0.006 | pinometostat -0.082 | [8] 0.01 | [10] 0.064 | vemurafenib -0.02 | [3] 0.123 | barasertib -0.065

OPA3 isoform 2 (UniProt Q9H6K4)
inactive: [7] 0.102 | ralimetinib 0.057 | [6] -0.083 | [4] 0.019 | [5] -0.052 | vemurafenib -0.132 | [3] -0.066 | givinostat -0.1

ORC3 (UniProt Q9UBD5)
inactive: [7] -0.031

OAS3 (UniProt Q9Y6K5)
inactive: IRAK-1-4 Inhibitor I 0.08 | ibrutinib 0.396 | ralimetinib -0.35 | [4] -0.503 | pinometostat -0.072 | [12] 0.124 | [5] -0.282 | [10] -0.272 | barasertib -0.061

NUDT8 (UniProt Q8WV74)
inactive: IRAK-1-4 Inhibitor I 0.054 | ibrutinib -0.047 | ralimetinib -0.049 | [6] -0.034 | [4] 0.023 | pinometostat -0.084 | [8] -0.005 | [9] 0.037 | [12] -0.17 | [5] 0 | [1] 0.086 | [10] 0.118 | vemurafenib -0.094 | [2] 0.003 | [3] -0.14 | givinostat -0.019 | barasertib 0.079

NUDT6 (UniProt P53370)
inactive: IRAK-1-4 Inhibitor I -0.143 | ralimetinib 0.183 | [11] -0.106 | [6] -0.033 | [4] 0.035 | pinometostat 0.071 | [9] 0.283 | [5] 0.049 | [1] 0.064 | [10] 0.075 | Nexturastat A -0.119 | vemurafenib 0.002 | [2] -0.037 | [3] -0.092 | givinostat -0.027

OSGEPL1 (UniProt Q9H4B0)
inactive: IRAK-1-4 Inhibitor I -0.045 | [7] 0.191 | [6] -0.074 | pinometostat 0.043 | [12] -0.21 | [1] -0.133 | [10] 0.071 | vemurafenib 0.113 | [2] -0.06 | givinostat -0.083

OSBPL3 (UniProt Q9H4L5)
inactive: IRAK-1-4 Inhibitor I -0.083 | [7] -0.277 | ralimetinib 0.309 | [11] 0.252 | [6] 0.506 | [4] 0.206 | pinometostat 0.204 | [9] -0.069 | [12] 0.35 | [5] 0.04 | [1] 0.006 | [10] -0.062 | Nexturastat A 0.471 | vemurafenib -0.267 | [2] -0.09 | givinostat -0.204

PABPC1 (UniProt H0YAR2)
inactive: IRAK-1-4 Inhibitor I 0.128 | ralimetinib -0.188 | [4] 0.121 | pinometostat 0.098 | [12] 0.075 | [5] -0.179 | [10] -0.138 | [3] -0.059

Source: the supplement of paper PMC10849652
